The source of these data is article PMC7348769.

Amino acid sequences for entries named in this document (tags omitted).
UniProt P17302: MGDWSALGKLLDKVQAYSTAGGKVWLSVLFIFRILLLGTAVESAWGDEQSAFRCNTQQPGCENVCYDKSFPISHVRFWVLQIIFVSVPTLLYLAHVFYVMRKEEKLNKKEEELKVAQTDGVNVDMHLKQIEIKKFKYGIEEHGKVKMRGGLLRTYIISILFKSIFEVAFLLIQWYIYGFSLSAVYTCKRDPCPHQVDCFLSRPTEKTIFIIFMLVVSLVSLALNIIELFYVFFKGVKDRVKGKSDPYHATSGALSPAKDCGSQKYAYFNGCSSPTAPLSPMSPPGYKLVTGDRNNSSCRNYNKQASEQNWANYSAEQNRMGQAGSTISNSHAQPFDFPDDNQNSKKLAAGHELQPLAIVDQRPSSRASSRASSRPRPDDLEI

Results are given in words; binding and its absence hold for the method and conditions named. For part of these data: Binding seen in cells or lysates may run through a third protein. Some results given as binding are weak or reduced against the parent protein; the word gives no strength. Sequences can lack the tags named with a protein.

In assay [1] the target is T1, MLC1 wild type (megalencephalic leukoencephalopathy with subcortical cysts protein 1), X-press tagged (human) (UniProt Q15049).
T1 sequence: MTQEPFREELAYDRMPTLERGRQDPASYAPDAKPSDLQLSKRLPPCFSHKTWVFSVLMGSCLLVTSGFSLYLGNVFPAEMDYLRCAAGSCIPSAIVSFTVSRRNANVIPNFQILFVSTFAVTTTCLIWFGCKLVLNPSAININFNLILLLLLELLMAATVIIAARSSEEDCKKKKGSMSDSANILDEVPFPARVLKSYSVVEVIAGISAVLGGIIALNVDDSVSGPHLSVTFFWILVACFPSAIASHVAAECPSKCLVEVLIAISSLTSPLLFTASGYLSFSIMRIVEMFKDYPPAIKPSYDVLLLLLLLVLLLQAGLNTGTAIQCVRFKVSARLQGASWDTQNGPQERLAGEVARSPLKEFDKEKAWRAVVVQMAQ
Description: co-IP; anti-Xpress mAb and protein A/G PLUS agarose beads on lysates of U251 cells expressing X-press-MLC1; binding buffer 20 mM HEPES pH 7.4, 150 mM NaCl, 1 mM EDTA, 1 mM EGTA, 0.1% Triton X-100, 0.1% sodium deoxycholate; overnight at 4 °C; Western blot. On the technique in general: A western blot detects proteins with antibodies after separation by electrophoresis.

Assay [2] addresses T1, MLC1 wild type (megalencephalic leukoencephalopathy with subcortical cysts protein 1), X-press tagged (human). Description: Western blot of SDS-PAGE (band of dimer size); cytosolic and membrane protein extracts (40 µg) of U251 cell lines, 4-12% gradient SDS-PAGE, anti-MLC1 pAb.

For the molecule Connexin 43 (from UniProt P17302 1-382), in assay [1], the binding entry is on record as “no binding”.

B1: GlialCAM (glial cell adhesion molecule) (protein, UniProt Q14CZ8 34-416)
chain: VNITSPVRLIHGTVGKSALLSVQYSSTSSDRPVVKWQLKRDKPVTVVQSIGTEVIGTLRPDYRDRIRLFENGSLLLSDLQLADEGTYEVEISITDDTFTGEKTINLTVDVPISRPQVLVASTTVLELSEAFTLNCSHENGTKPSYTWLKDGKPLLNDSRMLLSPDQKVLTITRVLMEDDDLYSCMVENPISQGRSLPVKITVYRRSSLYIILSTGGIFLLVTLVTVCACWKPSKRKQKKLEKQNSLEYMDQNDDRLKPEADTLPRSGEQERKNPMALYILKDKDSPETEENPAPEPRSATEPGPPGYSVSPAVPGRSPGLPIRSARRYPRSPARSPATGRTHSSPPRAPSSPGRSRSASRTLRTAGVHIIREQDEAGPVEISA
For the molecule B1, the binding entry in assay [1] was “binds”.

B2: MLC1 wild type (megalencephalic leukoencephalopathy with subcortical cysts protein 1), X-press tagged (protein, UniProt Q15049 1-377)
chain: MTQEPFREELAYDRMPTLERGRQDPASYAPDAKPSDLQLSKRLPPCFSHKTWVFSVLMGSCLLVTSGFSLYLGNVFPAEMDYLRCAAGSCIPSAIVSFTVSRRNANVIPNFQILFVSTFAVTTTCLIWFGCKLVLNPSAININFNLILLLLLELLMAATVIIAARSSEEDCKKKKGSMSDSANILDEVPFPARVLKSYSVVEVIAGISAVLGGIIALNVDDSVSGPHLSVTFFWILVACFPSAIASHVAAECPSKCLVEVLIAISSLTSPLLFTASGYLSFSIMRIVEMFKDYPPAIKPSYDVLLLLLLLVLLLQAGLNTGTAIQCVRFKVSARLQGASWDTQNGPQERLAGEVARSPLKEFDKEKAWRAVVVQMAQ
Consider B2, for which the binding entry in assay [2] was “binds”.
